Results published in US12433872B2, “Treatment of Acanthamoeba or Balamuthia trophozoites and/or cysts” (GEORGIA STATE UNIVERSITY RESEARCH FOUNDATION, INC., priority 2018, dated 2025).

Assays:
Format in all cases: cell-based
Settings in all cases: selectivity index, A549 IC50 versus 30 day MCC
[1] = system: Acanthamoeba healyi cysts; assay: Encystation drug susceptibility / excystation viability assay, 30 day recovery, A. healyi cysts
Method: (§1) The trophozoites of Acanthamoeba were harvested by mechanical detachment and collected via centrifugation at 4000 rpm at 4° C. for 5 minutes. The trophozoites were washed in 10 mL of Neff's Encystment Media (NEM). NEM composition is 20 mM Tris-HCL [pH 8.8] (2.43 g/L), 100 mM KCL (7.46 g/L), 8 mM MgSO4 (962.96 mg/L), 0.4 mM CaCL2 58.81 mg/L) and 1 mM NaHCO3 (84.01 mg/L) (Neff et al. 1964). All reagents were bought from Sigma Aldrich. Centrifugation of the trophozoites was repeated to ensure any residual growth medium was removed. The pellet was resuspended in a final volume of 15 mL of NEM, cultured in 75 cm^2 corning tissue culture flasks and incubated vertically in a thermal shaker, shaken at 100 rpm at 37° C. for 72 hours to produce fully matured cysts. NEM was supplemented with 250 μg of penicillin/streptomycin. Fresh cysts were produced each time for any experimentation.
(§2) At 72 hours the cysts were harvested using a cell scraper and collected via centrifugation at 4000 rpm at 25° C. for 10 minutes. The cells were washed twice in 10 mL of HyClone™ water, Molecular Biology Grade, and centrifugation was repeated to ensure the removal of any residual NEM. The cell suspension was washed with 0.5% sodium dodecyl sulphate (SDS) to remove any remaining trophozoites and immature cysts. The fully mature cysts were further washed twice with 10 mL of HyClone™ water and 1% NEM, centrifugation was repeated to remove any residue of SDS. The concentration of mature cysts was determined using a haemocytometer and adjusted to 1×10^4 cysts/mL in NEM.
(§3) All test compounds were prepared as 5 mg/mL stock solutions in dimethylsulfoxide (DMSO). All compounds were diluted in NEM, serially diluted in 2-fold dilutions 6 or 11 times, yielding a screening concentration range of 1.56 μg/mL to 50 μg/mL or 48 ng/mL to 50 μg/mL with a final highest screening concentration of 1% DMSO.
(§4) Based on this, a strain specific test period and also a 30 day non-specific recovery time were considered. For the 30 day recovery period, the media was changed 5 times to ensure the contents of wells dis not evaporate and have an effect within the results of the assay.
(§5) 90 μL of 1×10^4 Cysts/ml and 10 μL of experimental compounds from the screening plates were produced according to the protocols above and combined into a Corning clear 96 well treated tissue culture plate. Control wells include cysts in non-drug treated, 1% DMSO, NEM (to be used for negative growth control), NEM Blank, PG blank and cysts in non-drug treated, 1% DMSO, PG (to excyst cells and to be used for positive growth control). The total well volume for all wells was 100 μL. The drug exposed plates were screened at 27° C. for 6 or 24 hours only. At the exposure time point the plates were centrifuged at 4000 rpm at 25° C. for 10 minutes and washed twice with phosphate-buffered saline (PBS) to remove any residual experimental compound.
(§6) Once the plate(s) underwent the Encystation drug susceptibility process, all wells except the negative growth control and NEM blank wells received PG growth medium. All plates were left to recover at 27° C. for the strain specific time period of 5, 9 or 11 days depending on the species of Acanthamoeba. At each of the strain specific time points the plates were removed from incubation and microscopically analysed (qualitatively) for the excystation process for the emergence of excysted viable trophozoites or residual cysts. The presence of excysted trophozoites indicated viable amoebae (non-cystistatic or cysticidal—no effect) and the absence of excystation was considered as cystistatic/cysticidal effects.

[2] = system: Acanthamoeba culbertsoni (ATCC30171) cysts; assay: Encystation drug susceptibility / excystation viability assay, 30 day recovery, A. culbertsoni cysts
Method: as §1, §2, §3, §4, §5, §6

[3] = system: Acanthamoeba castellanii (ATCC50370) cysts; assay: Encystation drug susceptibility / excystation viability assay, 30 day recovery, A. castellanii cysts
Method: as §1, §2, §3, §4, §5, §6

Structure (SMILES) | A. healyi SI [1] | A. culbertsoni SI [2] | A. castellanii SI [3]
CC(C)NC(=N)c1ccc2nc(-c3cc(F)c(Oc4ccc(-c5nc6ccc(C(=N)NC(C)C)cc6[nH]5)c(F)c4)c(F)c3)[nH]c2c1 [Compound C, 2-(3,5-Difluoro-4-(3-fluoro-4-(6-(N-isopropylcarbamimidoyl)-1H-benzo[d]imidazol-2-yl)phenoxy)phenyl)-N-isopropyl-1H-benzo[d]imidazole-6-carboximidamide] | 1.51 | 3.01 | 1.51
CC(C)NC(=N)c1ccc2nc(-c3ccc(Oc4ccc(-c5nc6ccc(C(=N)NC(C)C)cc6[nH]5)c(Br)c4)cc3Br)[nH]c2c1 [Compound D, 2,2′-(Oxybis(2-bromo-4,1-phenylene))bis(N-isopropyl-1H-benzo[d]imidazole-6-carboximidamide)] | 1.23 | 3.28 | 1.23
CC(C)NC(=N)c1ccc2nc(-c3ccc(Oc4cc(F)c(-c5nc6ccc(C(=N)NC(C)C)cc6[nH]5)c(F)c4)cc3Br)[nH]c2c1 [Compound G, 2-(2-Bromo-4-(3,5-difluoro-4-(6-(N-isopropylcarbamimidoyl)-1H-benzo[d]imidazol-2-yl)phenoxy)phenyl)-N-isopropyl-1H-benzo[d]imidazole-6-carboximidamide] | 3.44 | 3.44 | 3.44
CC(C)NC(=N)c1ccc2nc(-c3cc(F)c(Oc4ccc(-c5nc6ccc(C(=N)NC(C)C)cc6[nH]5)c(Br)c4)c(F)c3)[nH]c2c1 [Compound F, 2-(2-Bromo-4-(2,6-difluoro-4-(6-(N-isopropylcarbamimidoyl)-1H-benzo[d]imidazol-2-yl)phenoxy)phenyl)-N-isopropyl-1H-benzo[d]imidazole-6-carboximidamide] | 3.90 | 2.60 | 2.60
CC(C)NC(=N)c1ccc2nc(-c3ccc(Oc4ccc(-c5nc6ccc(C(=N)NC(C)C)cc6[nH]5)c(Br)c4)cc3F)[nH]c2c1 [Compound E, 2-(2-Bromo-4-(3-fluoro-4-(6-(N-isopropylcarbamimidoyl)-1H-benzo[d]imidazol-2-yl)phenoxy)phenyl)-N-isopropyl-1H-benzo[d]imidazole-6-carboximidamide] | 2.07 | 2.07 | 1.38
CC(C)NC(=N)c1ccc2nc(-c3cc(F)c(Oc4ccc(-c5nc6ccc(C(=N)NC(C)C)cc6[nH]5)c(Cl)c4)c(F)c3)[nH]c2c1 [Compound B, 2-(2-Chloro-4-(2,6-difluoro-4-(6-(N-isopropylcarbamimidoyl)-1H-benzo[d]imidazol-2-yl)phenoxy)phenyl)-N-isopropyl-1H-benzo[d]imidazole-6-carboximidamide] | 4.45 | 5.94 | 1.78
CC(C)NC(=N)c1ccc2nc(-c3ccc(Oc4ccc(-c5nc6ccc(C(=N)NC(C)C)cc6[nH]5)c(F)c4F)cc3Br)[nH]c2c1 [Compound H, 2-(2-Bromo-4-(2,3-difluoro-4-(6-(N-isopropylcarbamimidoyl)-1H-benzo[d]imidazol-2-yl)phenoxy)phenyl)-N-isopropyl-1H-benzo[d]imidazole-6-carboximidamide] | 1.65 | 1.65 | 1.65
COc1cc(Oc2c(F)cc(-c3nc4ccc(C(=N)NC(C)C)cc4[nH]3)cc2F)ccc1-c1nc2ccc(C(=N)NC(C)C)cc2[nH]1 [Compound A, 2-(3,5-Difluoro-4-(4-(6-(N-isopropylcarbamimidoyl)-1H-benzo[d]imidazol-2-yl)-3-methoxyphenoxy)phenyl)-N-isopropyl-1H-benzo[d]imidazole-6-carboximidamide] | 4.14 | 4.14 | 0.69
